# Laboratory results: the supplement of paper PMC8728848
# This is one part of the list.
# B1: CcfD (Bacteroides fragilis), Q5L9G4 (protein)
# chain: MKKQNSIYTLLIALLCFVSSCDYLGVSDQLAGGLQNTEQVFDNVSYTKRWYANVFAGIPDYSGINSVNVGAFKNPWTGMCDELVVGYGNSSKYNNSDRNAANMGFHRYGDCYKYIRQANIFLQKAHPIMTTGTQGDQLLEDELTQMKANVRFMRAFYHYLLFEQYGPIILVKDKIYNATEDQDVPRNTVDEVIEYIDSELTAVASELTQEPIFEDKDYRAWPTKGVALAVRAKLWLYAASPLLNGGYREALSVTNPDGTRLFPDYDAGKWEKALAACKDFIDYAEAGRYELYKEYKDDNGAVIDPDKSVYNLFQKYTHEIIWATANNDWGGMNGDAFDRRIAPRCEKNGLGSTGVTQELVDAFYMKDGFPVSATAYLPQSTLYQEEGYGTYKDQNDNFSKKYTNVTVSNRYLNREPRFYNTVFFNGRQWPVSCNQVLFYNGGNSGVQEGQATLTGYMLFKRFNRSVSLTNPGVASQFRPSIIFRLADFYLMYAEAANEVNPNDARVLKYLNLVRERAGLPDIETLNPAIRGNQELQRAAIQRERQIELATEGQRYFDVRRWMIADKNGEGRQNGYVHGMNVRGESNDKEDFNRIVEASQIVFNRKMYLYPMPDSEMRKTKNLVQNPGW
# Assays:
# Assay in all cases: glycan array binding signal (z-score within array); higher = stronger binding
# Conditions in all cases: glycan notation: IUPAC condensed, linker removed
# [1] = biological target: GlcNAc(a1-6)Gal(b1-4)GlcNAc
# Summary of the method: (§1)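 The binding signal is a Z-score computed within each array. Data were drawn from 3228 arrays in the Consortium for Functional Glycomics database, restricted to those with a known protein sequence. Scores were averaged over arrays of the same protein sequence at different concentrations or buffers, and over linkers, and negative values can be taken as non-binding.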
# [2] = biological target: GlcNAc(b1-2)Gal(b1-3)GalNAc
# Summary of the method: as §1
# [3] = biological target: GlcNAc(b1-2)Man(a1-3)[GlcNAc(b1-2)Man(a1-6)]Man(b1-4)GlcNAc(b1-4)GlcNAc
# Summary of the method: as §1
# [4] = biological target: GlcNAc(b1-2)Man(a1-3)[GlcNAc(b1-2)Man(a1-6)]Man(b1-4)GlcNAc(b1-4)[Fuc(a1-6)]GlcNAc
# Summary of the method: as §1
# [5] = biological target: GlcNAc(b1-2)Man(a1-3)[GlcNAc(b1-4)][GlcNAc(b1-2)Man(a1-6)]Man(b1-4)GlcNAc(b1-4)GlcNAc
# Summary of the method: as §1
# [6] = biological target: GlcNAc(b1-2)Man(a1-3)[GlcNAc(b1-4)][GlcNAc(b1-2)Man(a1-6)]Man(b1-4)GlcNAc(b1-4)[Fuc(a1-6)]GlcNAc
# Summary of the method: as §1
# [7] = biological target: GlcNAc(b1-2)[GlcNAc(b1-4)]Man(a1-3)[GlcNAc(b1-2)Man(a1-6)]Man(b1-4)GlcNAc(b1-4)GlcNAc
# Summary of the method: as §1
# [8] = biological target: GlcNAc(b1-2)[GlcNAc(b1-4)]Man(a1-3)[GlcNAc(b1-4)][GlcNAc(b1-2)Man(a1-6)]Man(b1-4)GlcNAc(b1-4)GlcNAc
# Summary of the method: as §1
# [9] = biological target: GlcNAc(b1-2)[GlcNAc(b1-4)]Man(a1-3)[GlcNAc(b1-4)][GlcNAc(b1-2)[GlcNAc(b1-6)]Man(a1-6)]Man(b1-4)GlcNAc(b1-4)GlcNAc
# Summary of the method: as §1
# [10] = biological target: GlcNAc(b1-2)[GlcNAc(b1-4)]Man(a1-3)[GlcNAc(b1-4)][GlcNAc(b1-2)[GlcNAc(b1-6)]Man(a1-6)]Man(b1-4)GlcNAc(b1-4)[Fuc(a1-6)]GlcNAc
# Summary of the method: as §1
# [11] = biological target: GlcNAc(b1-2)[GlcNAc(b1-6)]Man(a1-6)[GlcNAc(b1-2)Man(a1-3)]Man(b1-4)GlcNAc(b1-4)GlcNAc
# Summary of the method: as §1
# [12] = biological target: GlcNAc(b1-2)[GlcNAc(b1-6)]Man(a1-6)[GlcNAc(b1-2)Man(a1-3)]Man(b1-4)GlcNAc(b1-4)[Fuc(a1-6)]GlcNAc
# Summary of the method: as §1
# [13] = biological target: GlcNAc(b1-2)[GlcNAc(b1-6)]Man(a1-6)[GlcNAc(b1-4)][GlcNAc(b1-2)Man(a1-3)]Man(b1-4)GlcNAc(b1-4)GlcNAc
# Summary of the method: as §1
# [14] = biological target: GlcNAc(b1-3)Fuc
# Summary of the method: as §1
# [15] = biological target: GlcNAc(b1-3)Gal
# Summary of the method: as §1
# [16] = biological target: GlcNAc(b1-3)Gal(b1-3)GalNAc
# Summary of the method: as §1
# [17] = biological target: GlcNAc(b1-3)Gal(b1-4)Glc
# Summary of the method: as §1
# [18] = biological target: GlcNAc(b1-3)Gal(b1-4)GlcNAc
# Summary of the method: as §1
# [19] = biological target: GlcNAc(b1-3)Gal(b1-4)GlcNAc(b1-2)Man(a1-3)[GlcNAc(b1-3)Gal(b1-4)GlcNAc(b1-2)Man(a1-6)]Man(b1-4)GlcNAc(b1-4)GlcNAc
# Summary of the method: as §1
# [20] = biological target: GlcNAc(b1-3)Gal(b1-4)GlcNAc(b1-2)Man(a1-3)[GlcNAc(b1-3)Gal(b1-4)GlcNAc(b1-2)Man(a1-6)]Man(b1-4)GlcNAc(b1-4)[Fuc(a1-6)]GlcNAc
# Summary of the method: as §1
# [21] = biological target: GlcNAc(b1-3)Gal(b1-4)GlcNAc(b1-2)[GlcNAc(b1-3)Gal(b1-4)GlcNAc(b1-6)]Man(a1-6)[GlcNAc(b1-3)Gal(b1-4)GlcNAc(b1-2)Man(a1-3)]Man(b1-4)GlcNAc(b1-4)GlcNAc
# Summary of the method: as §1
# [22] = biological target: GlcNAc(b1-3)Gal(b1-4)GlcNAc(b1-3)Gal(b1-4)GlcNAc
# Summary of the method: as §1
# [23] = biological target: GlcNAc(b1-3)Gal(b1-4)GlcNAc(b1-3)Gal(b1-4)GlcNAc(b1-2)Man(a1-3)[GlcNAc(b1-3)Gal(b1-4)GlcNAc(b1-3)Gal(b1-4)GlcNAc(b1-2)Man(a1-6)]Man(b1-4)GlcNAc(b1-4)GlcNAc
# Summary of the method: as §1
# [24] = biological target: GlcNAc(b1-3)Gal(b1-4)GlcNAc(b1-3)Gal(b1-4)GlcNAc(b1-2)Man(a1-3)[GlcNAc(b1-3)Gal(b1-4)GlcNAc(b1-3)Gal(b1-4)GlcNAc(b1-2)Man(a1-6)]Man(b1-4)GlcNAc(b1-4)[Fuc(a1-6)]GlcNAc
# Summary of the method: as §1
# [25] = biological target: GlcNAc(b1-3)Gal(b1-4)GlcNAc(b1-3)Gal(b1-4)GlcNAc(b1-2)[GlcNAc(b1-3)Gal(b1-4)GlcNAc(b1-3)Gal(b1-4)GlcNAc(b1-6)]Man(a1-6)[GlcNAc(b1-3)Gal(b1-4)GlcNAc(b1-3)Gal(b1-4)GlcNAc(b1-2)Man(a1-3)]Man(b1-4)GlcNAc(b1-4)[Fuc(a1-6)]GlcNAc
# Summary of the method: as §1
# [26] = biological target: GlcNAc(b1-3)Gal(b1-4)GlcNAc(b1-3)Gal(b1-4)GlcNAc(b1-3)Gal(b1-4)GlcNAc(b1-2)Man(a1-3)[GlcNAc(b1-3)Gal(b1-4)GlcNAc(b1-3)Gal(b1-4)GlcNAc(b1-3)Gal(b1-4)GlcNAc(b1-2)Man(a1-6)]Man(b1-4)GlcNAc(b1-4)GlcNAc
# Summary of the method: as §1
# [27] = biological target: GlcNAc(b1-3)Gal(b1-4)GlcNAc(b1-3)Gal(b1-4)GlcNAc(b1-3)Gal(b1-4)GlcNAc(b1-2)Man(a1-3)[GlcNAc(b1-3)Gal(b1-4)GlcNAc(b1-3)Gal(b1-4)GlcNAc(b1-3)Gal(b1-4)GlcNAc(b1-2)Man(a1-6)]Man(b1-4)GlcNAc(b1-4)[Fuc(a1-6)]GlcNAc
# Summary of the method: as §1
# [28] = biological target: GlcNAc(b1-3)Gal(b1-4)GlcNAc(b1-3)Gal(b1-4)GlcNAc(b1-3)Gal(b1-4)GlcNAc(b1-2)[GlcNAc(b1-3)Gal(b1-4)GlcNAc(b1-3)Gal(b1-4)GlcNAc(b1-3)Gal(b1-4)GlcNAc(b1-6)]Man(a1-6)[GlcNAc(b1-3)Gal(b1-4)GlcNAc(b1-3)Gal(b1-4)GlcNAc(b1-3)Gal(b1-4)GlcNAc(b1-2)Man(a1-3)]Man(b1-4)GlcNAc(b1-4)[Fuc(a1-6)]GlcNAc
# Summary of the method: as §1
# [29] = biological target: GlcNAc(b1-3)Gal(b1-4)GlcNAc(b1-3)Gal(b1-4)GlcNAc(b1-3)Gal(b1-4)GlcNAc(b1-3)Gal(b1-4)GlcNAc(b1-2)Man(a1-3)[GlcNAc(b1-3)Gal(b1-4)GlcNAc(b1-3)Gal(b1-4)GlcNAc(b1-3)Gal(b1-4)GlcNAc(b1-3)Gal(b1-4)GlcNAc(b1-2)Man(a1-6)]Man(b1-4)GlcNAc(b1-4)GlcNAc
# Summary of the method: as §1
# [30] = biological target: GlcNAc(b1-3)Gal(b1-4)GlcNAc(b1-3)Gal(b1-4)GlcNAc(b1-3)Gal(b1-4)GlcNAc(b1-3)Gal(b1-4)GlcNAc(b1-2)Man(a1-3)[GlcNAc(b1-3)Gal(b1-4)GlcNAc(b1-3)Gal(b1-4)GlcNAc(b1-3)Gal(b1-4)GlcNAc(b1-3)Gal(b1-4)GlcNAc(b1-2)Man(a1-6)]Man(b1-4)GlcNAc(b1-4)[Fuc(a1-6)]GlcNAc
# Summary of the method: as §1
binder,measurement,setting,value
B1,glycan array binding signal (z-score),[1],-1.11
same,glycan array binding signal (z-score),[2],-0.791
same,glycan array binding signal (z-score),[3],1.28
same,glycan array binding signal (z-score),[4],0.259
same,glycan array binding signal (z-score),[5],-0.726
same,glycan array binding signal (z-score),[6],-0.089
same,glycan array binding signal (z-score),[7],-0.995
same,glycan array binding signal (z-score),[8],-0.64
same,glycan array binding signal (z-score),[9],-0.548
same,glycan array binding signal (z-score),[10],1.17
same,glycan array binding signal (z-score),[11],-0.726
same,glycan array binding signal (z-score),[12],0.975
same,glycan array binding signal (z-score),[13],-0.647
same,glycan array binding signal (z-score),[14],0.647
same,glycan array binding signal (z-score),[15],-1.03
same,glycan array binding signal (z-score),[16],-0.696
same,glycan array binding signal (z-score),[17],-1.03
same,glycan array binding signal (z-score),[18],-1.26
same,glycan array binding signal (z-score),[19],2.55
same,glycan array binding signal (z-score),[20],1.11
same,glycan array binding signal (z-score),[21],2.25
same,glycan array binding signal (z-score),[22],-0.726
same,glycan array binding signal (z-score),[23],1.08
same,glycan array binding signal (z-score),[24],1.14
same,glycan array binding signal (z-score),[25],1.33
same,glycan array binding signal (z-score),[26],0.108
same,glycan array binding signal (z-score),[27],1.5
same,glycan array binding signal (z-score),[28],0.91
same,glycan array binding signal (z-score),[29],0.568
same,glycan array binding signal (z-score),[30],1.82

# Some of the entries so far, with bars between the fields.
binder | measurement | setting | value
B1 | glycan array binding signal (z-score) | [9] | -0.548
same | glycan array binding signal (z-score) | [25] | 1.33
